# Measured values: the supplement of paper PMC8728848
# The list shows a part of the results.
# B1: B3GalT2 (Rattus norvegicus) (protein)
# chain: LMLQWRRRHCCFAKMSWNAKRSLFRTHLMGVLSLVFLFAMFLFFNHHDWLPGRPGFKENPVTYTFRGFRSTKTETNQSSLRNIWKEVVPQTLRPQTATNSNNTELSPQGVTGLENTLSANGSIYNEKGTGHPNSYHFKYIINEPEKCQEKSPFLILLIAAEPGQIEARRAIRQTWGNETLAPGIQITRIFLLGISIKLNGYLQHAIQEESIQYHDIIQQEYLDTYYNLTIKTLMGMNWVATYCPHTPYVMKTDSDMFVNTEYLIHKLLKPDLPPRHNYFTGYLMRGYAPNRNKDSKWYMPPDLYPSERYPVFCSGTGYVFSGDLAEKIFKVSLGIRRLHLEDVYVGICLAKLRVDPVPPPNEFVFNHWRVSYSSCKYSHLITSHQFQPSELIKYWNHLQQNKHNACVNAAKEKAGRYRHRKLH
# Columns and labels:
# Assay in all cases: glycan array binding signal (z-score within array); higher = stronger binding
# Conditions in all cases: glycan notation: IUPAC condensed, linker removed
# [1] = target: Fuc(a1-2)Gal6S(b1-3)GlcNAc
# Procedure, shortened: (§1)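 Glycan array binding is given as a within-array Z-score, which can be read as non-binding when negative. The arrays, 3228 of them, came from the Consortium for Functional Glycomics database and were retained only where the protein sequence was available. Z-scores were averaged across arrays of the same protein sequence at different concentrations or buffers and across linkers.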
# [2] = target: Fuc(a1-2)Gal6S(b1-3)GlcNAc6S
# Procedure, shortened: as §1
# Fuc(a1-2)Gal6S(b1-4)Glc = target: Fuc(a1-2)Gal6S(b1-4)Glc
# Procedure, shortened: as §1
# [3] = target: Fuc(a1-2)Gal6S(b1-4)Glc6S
# Procedure, shortened: as §1
# Fuc(a1-2)[Gal(a1-3)]Gal = target: Fuc(a1-2)[Gal(a1-3)]Gal
# Procedure, shortened: as §1
# [4] = target: Fuc(a1-2)[Gal(a1-3)]Gal(b1-3)GalNAc
# Procedure, shortened: as §1
# [5] = target: Fuc(a1-2)[Gal(a1-3)]Gal(b1-3)GalNAc(b1-3)Gal(a1-4)Gal(b1-4)Glc
# Procedure, shortened: as §1
# [6] = target: Fuc(a1-2)[Gal(a1-3)]Gal(b1-3)GlcNAc
# Procedure, shortened: as §1
# [7] = target: Fuc(a1-2)[Gal(a1-3)]Gal(b1-3)GlcNAc(b1-2)Man(a1-3)[Fuc(a1-2)[Gal(a1-3)]Gal(b1-3)GlcNAc(b1-2)Man(a1-6)]Man(b1-4)GlcNAc(b1-4)GlcNAc
# Procedure, shortened: as §1
# [8] = target: Fuc(a1-2)[Gal(a1-3)]Gal(b1-3)GlcNAc(b1-2)Man(a1-3)[Fuc(a1-2)[Gal(a1-3)]Gal(b1-3)GlcNAc(b1-2)Man(a1-6)]Man(b1-4)GlcNAc(b1-4)[Fuc(a1-6)]GlcNAc
# Procedure, shortened: as §1
# [9] = target: Fuc(a1-2)[Gal(a1-3)]Gal(b1-3)GlcNAc(b1-3)GalNAc
# Procedure, shortened: as §1
# [10] = target: Fuc(a1-2)[Gal(a1-3)]Gal(b1-3)GlcNAc(b1-6)GalNAc
# Procedure, shortened: as §1
# [11] = target: Fuc(a1-2)[Gal(a1-3)]Gal(b1-4)Glc
# Procedure, shortened: as §1
# [12] = target: Fuc(a1-2)[Gal(a1-3)]Gal(b1-4)GlcNAc
# Procedure, shortened: as §1
# [13] = target: Fuc(a1-2)[Gal(a1-3)]Gal(b1-4)GlcNAc(b1-2)Man
# Procedure, shortened: as §1
# [14] = target: Fuc(a1-2)[Gal(a1-3)]Gal(b1-4)GlcNAc(b1-2)Man(a1-3)[Fuc(a1-2)[Gal(a1-3)]Gal(b1-4)GlcNAc(b1-2)Man(a1-6)]Man(b1-4)GlcNAc(b1-4)GlcNAc
# Procedure, shortened: as §1
# [15] = target: Fuc(a1-2)[Gal(a1-3)]Gal(b1-4)GlcNAc(b1-2)Man(a1-3)[Fuc(a1-2)[Gal(a1-3)]Gal(b1-4)GlcNAc(b1-2)Man(a1-6)]Man(b1-4)GlcNAc(b1-4)[Fuc(a1-6)]GlcNAc
# Procedure, shortened: as §1
# [16] = target: Fuc(a1-2)[Gal(a1-3)]Gal(b1-4)GlcNAc(b1-3)GalNAc
# Procedure, shortened: as §1
# [17] = target: Fuc(a1-2)[Gal(a1-3)]Gal(b1-4)GlcNAc(b1-6)GalNAc
# Procedure, shortened: as §1
# [18] = target: Fuc(a1-2)[Gal(a1-3)]Gal(b1-4)[Fuc(a1-3)]Glc
# Procedure, shortened: as §1
# [19] = target: Fuc(a1-2)[Gal(a1-3)]Gal(b1-4)[Fuc(a1-3)]GlcNAc
# Procedure, shortened: as §1
# [20] = target: Fuc(a1-2)[Gal(a1-3)]Gal(b1-4)[Fuc(a1-3)]GlcNAc(b1-3)GalNAc
# Procedure, shortened: as §1
# [21] = target: Fuc(a1-2)[Gal(a1-4)]Gal(b1-4)GlcNAc
# Procedure, shortened: as §1
# [22] = target: Fuc(a1-2)[GalNAc(a1-3)]Gal
# Procedure, shortened: as §1
# [23] = target: Fuc(a1-2)[GalNAc(a1-3)]Gal(b1-3)GalNAc(a1-3)[Fuc(a1-2)]Gal(b1-4)GlcNAc
# Procedure, shortened: as §1
# [24] = target: Fuc(a1-2)[GalNAc(a1-3)]Gal(b1-3)GalNAc(b1-3)Gal(a1-4)Gal(b1-4)Glc
# Procedure, shortened: as §1
# [25] = target: Fuc(a1-2)[GalNAc(a1-3)]Gal(b1-3)GlcNAc
# Procedure, shortened: as §1
# [26] = target: Fuc(a1-2)[GalNAc(a1-3)]Gal(b1-3)GlcNAc(b1-2)Man(a1-3)[Fuc(a1-2)[GalNAc(a1-3)]Gal(b1-3)GlcNAc(b1-2)Man(a1-6)]Man(b1-4)GlcNAc(b1-4)GlcNAc
# Procedure, shortened: as §1
# [27] = target: Fuc(a1-2)[GalNAc(a1-3)]Gal(b1-3)GlcNAc(b1-2)Man(a1-3)[Fuc(a1-2)[GalNAc(a1-3)]Gal(b1-3)GlcNAc(b1-2)Man(a1-6)]Man(b1-4)GlcNAc(b1-4)[Fuc(a1-6)]GlcNAc
# Procedure, shortened: as §1
# [28] = target: Fuc(a1-2)[GalNAc(a1-3)]Gal(b1-3)GlcNAc(b1-3)GalNAc
# Procedure, shortened: as §1
# [29] = target: Fuc(a1-2)[GalNAc(a1-3)]Gal(b1-3)GlcNAc(b1-6)GalNAc
# Procedure, shortened: as §1
# [30] = target: Fuc(a1-2)[GalNAc(a1-3)]Gal(b1-4)Glc
# Procedure, shortened: as §1
# [31] = target: Fuc(a1-2)[GalNAc(a1-3)]Gal(b1-4)GlcNAc
# Procedure, shortened: as §1
# [32] = target: Fuc(a1-2)[GalNAc(a1-3)]Gal(b1-4)GlcNAc(b1-2)Man
# Procedure, shortened: as §1
# [33] = target: Fuc(a1-2)[GalNAc(a1-3)]Gal(b1-4)GlcNAc(b1-2)Man(a1-3)[Fuc(a1-2)[GalNAc(a1-3)]Gal(b1-4)GlcNAc(b1-2)Man(a1-6)]Man(b1-4)GlcNAc(b1-4)GlcNAc
# Procedure, shortened: as §1
# [34] = target: Fuc(a1-2)[GalNAc(a1-3)]Gal(b1-4)GlcNAc(b1-2)Man(a1-3)[Fuc(a1-2)[GalNAc(a1-3)]Gal(b1-4)GlcNAc(b1-2)Man(a1-6)]Man(b1-4)GlcNAc(b1-4)[Fuc(a1-6)]GlcNAc
# Procedure, shortened: as §1
# [35] = target: Fuc(a1-2)[GalNAc(a1-3)]Gal(b1-4)GlcNAc(b1-3)Gal(b1-4)GlcNAc
# Procedure, shortened: as §1
# [36] = target: Fuc(a1-2)[GalNAc(a1-3)]Gal(b1-4)GlcNAc(b1-3)Gal(b1-4)GlcNAc(b1-3)Gal(b1-4)GlcNAc
# Procedure, shortened: as §1
# [37] = target: Fuc(a1-2)[GalNAc(a1-3)]Gal(b1-4)GlcNAc(b1-3)GalNAc
# Procedure, shortened: as §1
# [38] = target: Fuc(a1-2)[GalNAc(a1-3)]Gal(b1-4)GlcNAc(b1-3)[Fuc(a1-2)[GalNAc(a1-3)]Gal(b1-4)GlcNAc(b1-6)]GalNAc
# Procedure, shortened: as §1
# [39] = target: Fuc(a1-2)[GalNAc(a1-3)]Gal(b1-4)GlcNAc(b1-6)GalNAc
# Procedure, shortened: as §1
# [40] = target: Fuc(a1-2)[GalNAc(a1-3)]Gal(b1-4)[Fuc(a1-3)]GlcNAc
# Procedure, shortened: as §1
# [41] = target: Fuc(a1-2)[GalNAc(a1-3)]Gal(b1-4)[Fuc(a1-3)]GlcNAc(b1-3)GalNAc
# Procedure, shortened: as §1
# [42] = target: Fuc(a1-2)[GalNAc(a1-4)]Gal(b1-4)GlcNAc
# Procedure, shortened: as §1
# [43] = target: Fuc(a1-2)[GalNAc(b1-3)]Gal
# Procedure, shortened: as §1
binder,measurement,setting,value
B1,glycan array binding signal (z-score),[1],0.207
same,glycan array binding signal (z-score),[2],0.6
same,glycan array binding signal (z-score),Fuc(a1-2)Gal6S(b1-4)Glc,0.342
same,glycan array binding signal (z-score),[3],0.509
same,glycan array binding signal (z-score),Fuc(a1-2)[Gal(a1-3)]Gal,0.249
same,glycan array binding signal (z-score),[4],0.316
same,glycan array binding signal (z-score),[5],0.853
same,glycan array binding signal (z-score),[6],-0.235
same,glycan array binding signal (z-score),[7],0.088
same,glycan array binding signal (z-score),[8],0.023
same,glycan array binding signal (z-score),[9],-0.52
same,glycan array binding signal (z-score),[10],0.17
same,glycan array binding signal (z-score),[11],0.403
same,glycan array binding signal (z-score),[12],-0.033
same,glycan array binding signal (z-score),[13],1.47
same,glycan array binding signal (z-score),[14],0.289
same,glycan array binding signal (z-score),[15],-0.224
same,glycan array binding signal (z-score),[16],-0.545
same,glycan array binding signal (z-score),[17],-0.718
same,glycan array binding signal (z-score),[18],-0.757
same,glycan array binding signal (z-score),[19],-0.213
same,glycan array binding signal (z-score),[20],0.152
same,glycan array binding signal (z-score),[21],0.673
same,glycan array binding signal (z-score),[22],1.07
same,glycan array binding signal (z-score),[23],0.44
same,glycan array binding signal (z-score),[24],-0.694
same,glycan array binding signal (z-score),[25],-0.761
same,glycan array binding signal (z-score),[26],-0.832
same,glycan array binding signal (z-score),[27],-0.636
same,glycan array binding signal (z-score),[28],-0.636
same,glycan array binding signal (z-score),[29],-0.861
same,glycan array binding signal (z-score),[30],0.999
same,glycan array binding signal (z-score),[31],0.117
same,glycan array binding signal (z-score),[32],0.311
same,glycan array binding signal (z-score),[33],-0.447
same,glycan array binding signal (z-score),[34],0.615
same,glycan array binding signal (z-score),[35],-0.693
same,glycan array binding signal (z-score),[36],-0.727
same,glycan array binding signal (z-score),[37],0.152
same,glycan array binding signal (z-score),[38],-0.188
same,glycan array binding signal (z-score),[39],-1.06
same,glycan array binding signal (z-score),[40],0.349
same,glycan array binding signal (z-score),[41],0.248
same,glycan array binding signal (z-score),[42],-0.599
same,glycan array binding signal (z-score),[43],3.23
